Patent US11162937B2, “Patient selection method for inflammation” (Purdue Research Foundation, priority 2013, dated 2021)

Tested on: CIA mice
Test: Collagen-induced arthritis (CIA) mice: ^99mTc-EC20 radioimaging, arthritis score and paw thickness under anti-inflammatory therapy
Procedure: Collagen-induced arthritis (CIA) was initiated using established methods on 6-7 week old female DBA/1 mice (Jackson Laboratories) maintained on folate-deficient diet (Harlan-Teklad). Briefly, mice were immunized at the base of the tail with 100 μg bovine type II collagen emulsified in complete Freund's adjuvant (Chondrex, Inc., Redmond, Wash., USA). Mice were then boosted 21 days later with a similar injection of 100 μg bovine type II collagen emulsified in incomplete Freund's adjuvant. After four days, onset of arthritis was synchronized in all mice with an intraperitoneal injection of 25 μg lipopolysaccharide (LPS) dissolved in saline. […] Arthritis scores were assessed every other day by researchers blinded to the various treatment groups, using the following scoring system: 0=normal; 1=mild, but definite redness and swelling of the ankle or wrist, or apparent redness and swelling limited to individual digits, regardless of the number of affected digits; 2=moderate redness and swelling of ankle or wrist; 3=severe redness and swelling of the entire paw including digits; 4=maximally inflamed limb with involvement of multiple joints. A total score for each mouse was calculated by summing the scores for each of the four paws, allowing a maximum possible score of 16 per animal. Paw thickness was measured with calipers every other day starting on the first day of treatment. […]

COc1ccc2cc([C@H](C)C(=O)O)ccc2c1 [naproxen]
uptake of ^99mTc-EC20 in the affected appendages relative to disease control (day 3 of therapy, 150 μCi ^99mTc-EC20 i.p., imaged after 4 h): no significant difference in uptake | disease symptoms / joint inflammation (arthritis score, paw thickness) relative to disease control (day 11 of therapy): no significant difference
